Results on twelve compounds are retold here after the supplement of paper PMC11409438.

The other results are listed elsewhere or left out. Many values rest on one well or one pass, so single values are uncertain.

This test relates to Caenorhabditis elegans ST65 (ncIs13[ajm-1::GFP]). The experiment in a line: 'Larvae/adult' ratio (MetaXpress pharynx counts; minimum value 1, so it appears to include adults; growth inhibition read-out). The settings on record: 10 µM; exposure time: 4-5 days from L1 at 20°C.
`COc1cc(C)c(/C=C/C(C)=C/C=C/C(C)=C/C(=O)O)c(C)c1C` [Acitretin]: the “'Larvae/adult' ratio” value is 2.24.

Turning to `Nc1nc(NC2CC2)cc(-c2cccc(Cl)c2Cl)n1`, the “'Larvae/adult' ratio” value was 6.5.

In the case of `O=C(CCCCCCNC(=O)c1cnc(N(c2ccccc2)c2ccccc2)nc1)NO` [Ricolinostat (ACY-1215)], the “'Larvae/adult' ratio” value came out at 2.

For `CN1CCc2c(c3ccccc3n2Cc2ccc(C(=O)NO)cc2)C1` [Tubastatin A], the “'Larvae/adult' ratio” value was 2.44.

On to `CC(C)c1cc(-c2n[nH]c(=O)n2-c2ccc3c(ccn3C)c2)c(O)cc1O` [Ganetespib (STA-9090)], for which the “'Larvae/adult' ratio” value amounted to 1.45.

With `Cc1ccc(-c2cc(C(F)(F)F)nn2-c2ccc(S(N)(=O)=O)cc2)cc1` [Celecoxib], the “'Larvae/adult' ratio” value was 2.23.

As to `C[C@@H]1COC(Nc2ccc3ncnc(Nc4ccc(OCc5nccs5)c(Cl)c4)c3c2)=N1` [Varlitinib], the “'Larvae/adult' ratio” value worked out at 1.9.

On to `O=C(c1ccc(C(=O)N2CCC(N3CCCC3)CC2)c(Nc2ccccc2)c1)N1CCC(N2CCCC2)CC1`, for which the “'Larvae/adult' ratio” value worked out at 2.62.

Regarding `CC(C)(O)CC(=O)NCCn1ccc2ncnc(Nc3ccc(Oc4cccc(C(F)(F)F)c4)c(Cl)c3)c21`, the “'Larvae/adult' ratio” value stood at 1.9.

Regarding `COc1cc([C@@H]2c3cc4c(cc3[C@@H](O[C@@H]3O[C@@H]5CO[C@@H](c6cccs6)O[C@H]5[C@H](O)[C@H]3O)[C@H]3COC(=O)[C@H]23)OCO4)cc(OC)c1O` [Teniposide], the “'Larvae/adult' ratio” value worked out at 1.92.

In the case of `Cc1ccc(C(=O)Nc2ccc(CN3CCN(C)CC3)c(C(F)(F)F)c2)cc1C#Cc1cnc2cccnn12`, the “'Larvae/adult' ratio” value came out at 3.6.

With `O=C(O)C(=O)O.[NH-][C@@H]1CCCC[C@H]1[NH-].[Pt+2]` [Oxaliplatin], the “'Larvae/adult' ratio” value was 2.27.
